Results deposited as PubChem BioAssay AID602196 (INSERM, 2012).

Screen: 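Knock-downs that protect lung cancer cells from cisplatin or sensitise them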
System: human A549 lung cancer cells
Reagent: siRNA pair against human genes
Duration: 48 h transfection before cisplatin; time from cisplatin to read-out not stated
Treatment: cisplatin at a dose killing half of control-siRNA cells; exact dose and duration not given
Read-out: 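Cisplatin cell death as a shift from the 50% death seen with control siRNA; siRNAs toxic or growth-blocking alone scored 0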
Scale: two-siRNA summed score (-2 to +2): higher = both siRNAs protect from cisplatin killing; -2 means both sensitise
Hit rule: 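Each siRNA scores 0 if harmful alone by LDH or WST-1, otherwise +1 if it reduces and -1 if it increases cisplatin killing; a gene is active when both siRNAs agree (sum +2 or -2)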
Calls: active = both siRNAs shift cisplatin killing the same way; inactive = no consistent shift, or siRNA harmful alone
In all, the deposit lists about 23,000 reagents; below is an unselected part. 455 of them (2%) count as active. 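Active includes both protection and sensitisation; some change values fall well beyond the stated -50 to +50 range.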 Reagents against one gene are numbered here. Not all columns of the deposit are shown. No sequences are given here. The record does not give: the amount of reagent.

two-siRNA summed score (-2 to +2), by target gene and reagent
CYTOR: #1 0 inactive; #2 0 inactive
ULBP2: #1 1 inactive
KIAA2002: #1 0 inactive
GPBAR1: #1 0 inactive
DNAJC27: #1 0 inactive
PLEKHA8P1: #1 0 inactive
IGBP1: #1 -1 inactive
NDP: #1 -1 inactive
LOC440004: #1 0 inactive
PSMD8: #1 0 inactive
MIEF1: #1 0 inactive
NHERF2: #1 1 inactive
NXF5: #1 0 inactive
CACNG2: #1 0 inactive
FGFRL1: #1 0 inactive
PLXNA3: #1 0 inactive
CCNF: #1 0 inactive
P2RY12: #1 0 inactive
UBOX5: #1 0 inactive
LOC440180: #1 0 inactive
C19orf18: #1 1 inactive
DPY19L2P2: #1 0 inactive
TBCE: #1 0 inactive
CHRFAM7A: #1 -1 inactive
IGFBPL1: #1 0 inactive
LIMCH1: #1 0 inactive
H2AC15: #1 1 inactive
PRKCQ-AS1: #1 0 inactive
PRKACB: #1 0 inactive
F7: #1 0 inactive
GSTT1: #1 0 inactive
SMG6: #1 1 inactive
SVIL: #1 0 inactive
LOC442248: #1 1 inactive
NCKIPSD: #1 -1 inactive
C9: #1 0 inactive
LOC131149: #1 0 inactive
OR2H2: #1 0 inactive
LOC128387: #1 0 inactive
SLC6A11: #1 0 inactive
TCTN1: #1 0 inactive
MOSPD2: #1 0 inactive
CDKN2A: #1 0 inactive
PRM2: #1 0 inactive
FHIP2B: #1 0 inactive
SLC35A3: #1 0 inactive
ACKR3: #1 1 inactive
NISCH: #1 0 inactive
SMTNL2: #1 0 inactive
KIAA1991: #1 1 inactive
SLC6A18: #1 1 inactive
SFR1: #1 0 inactive
LOC441082: #1 0 inactive
ARL9: #1 -1 inactive
LOC402382: #1 2 active
BRDT: #1 0 inactive

Entries listed above called active, once more:
two-siRNA summed score (-2 to +2), by target gene and reagent
LOC402382: #1 2 active
